Assay results: PubChem BioAssay AID212 (DTP/NCI, 2004)
The list is a part of this screen's results and no random one: its compounds were picked by chemical class. Not every dose and run of a compound is shown. T/C gives the treated animals as a percentage of the vehicle group. Schedules are NCI's codes, taken here to give the interval after Q, in days (D) or hours (H), and the number of doses after X. Some T/C values are marked as having no survivor count here; that says nothing about deaths at the dose. Some entries were tested several times; their values stand side by side, smallest first. For survival time, the PubChem record calls one and a half times the control and up active, and a quarter to a half above the control has no call in these data; cut-offs in other NCI protocols can differ.

Tested on: BDF1 mice, colon carcinoma 38 sc, T/C %
Experiment: NCI In Vivo Anticancer Drug Screen. Data for tumor model Colon Carcinoma 38 (subcutaneous) in B6D2F1 (BDF1) mice
Experimental: The antitumor activity of compounds was measured in mice bearing transplantable tumors. Survival or tumor size were measured and the results are expressed as the measurement made in the treated group (T) divided by the measurement made in the vehicle treated control group (C). The tumor model used in this assay is Colon Carcinoma 38 (subcutaneous) in B6D2F1 (BDF1) mice

[1] = T/C endpoint: median tumor weight (est.), dose: 1.0 mg/kg/injection, schedule: Q07DX003 (ip), vehicle: saline, evaluated on day 20, higher T/C = larger tumour
[2] = T/C endpoint: median tumor weight (est.), dose: 2.0 mg/kg/injection, schedule: Q07DX003 (ip), vehicle: saline, evaluated on day 20, higher T/C = larger tumour

**Q.** Which T/C (T/C endpoint: median survival time, dose: 1.5 mg/kg/injection, schedule: Q07DX003 (sc), vehicle: saline + alcohol, higher T/C = longer survival) does the source give for `CC(=O)OCC12CCC(C)=CC1OC1C(O)C(OC(C)=O)C2(C)C12CO2` (stereo not drawn) here?
**A.** 111 % of control [survivor count not shown]

**Q.** And the T/C (T/C endpoint: median survival time, dose: 2.4 mg/kg/injection, schedule: Q01DX010 (ip), vehicle: saline + alcohol, higher T/C = longer survival)?
**A.** 144 [survivor count not shown] and 154 % of control [survivor count not shown]

**Q.** What about the T/C (T/C endpoint: median survival time, dose: 3.0 mg/kg/injection, schedule: Q07DX003 (sc), vehicle: saline + alcohol, higher T/C = longer survival) of the same compound?
**A.** 132 % of control [survivor count not shown]

**Q.** And the T/C (T/C endpoint: median tumor weight (est.), dose: 0.25 mg/kg/injection, schedule: Q07DX002 (ip), vehicle: saline, evaluated on day 20, higher T/C = larger tumour)?
**A.** 82 % of control [survivor count not shown]

**Q.** What about the T/C (T/C endpoint: median tumor weight (est.), dose: 0.25 mg/kg/injection, schedule: Q07DX003 (ip), vehicle: saline, evaluated on day 20, higher T/C = larger tumour) of the same compound?
**A.** 86 % of control [survivor count not shown]

**Q.** And the T/C (T/C endpoint: median tumor weight (est.), dose: 0.5 mg/kg/injection, schedule: Q07DX003 (ip), vehicle: saline, evaluated on day 20, higher T/C = larger tumour)?
**A.** 63 [survivor count not shown], 70 [survivor count not shown], 96 % of control [survivor count not shown]

**Q.** What about the T/C (T/C endpoint: median tumor weight (est.), dose: 1.0 mg/kg/injection, schedule: Q07DX002 (ip), vehicle: saline, evaluated on day 20, higher T/C = larger tumour) of the same compound?
**A.** 126 % of control [survivor count not shown]

**Q.** What about the T/C [1] of the same compound?
**A.** 65 [survivor count not shown], 66 [survivor count not shown], 68 [survivor count not shown], 77 [survivor count not shown], 106 % of control [survivor count not shown]

**Q.** What about the T/C (T/C endpoint: median tumor weight (est.), dose: 2.0 mg/kg/injection, schedule: Q07DX003 (ip), vehicle: saline with Tween-80, evaluated on day 20, higher T/C = larger tumour) of the same compound?
**A.** 34 % of control [survivor count not shown]

**Q.** And the T/C [2]?
**A.** 23 [survivor count not shown], 32 [survivor count not shown], 43 [survivor count not shown], 62 [survivor count not shown], 102 % of control [survivor count not shown]

**Q.** What about the T/C (T/C endpoint: median tumor weight (est.), dose: 4.0 mg/kg/injection, schedule: Q07DX003 (ip), vehicle: saline with Tween-80, evaluated on day 20, higher T/C = larger tumour) of the same compound?
**A.** 11 % of control [survivor count not shown]

**Q.** What about the T/C (T/C endpoint: median tumor weight (est.), dose: 4.0 mg/kg/injection, schedule: Q07DX003 (ip), vehicle: saline, evaluated on day 20, higher T/C = larger tumour) of the same compound?
**A.** 20 [survivor count not shown], 24 [survivor count not shown], 29 [survivor count not shown], 65 % of control [survivor count not shown]

**Q.** What about the T/C (T/C endpoint: median tumor weight (est.), dose: 5.0 mg/kg/injection, schedule: Q07DX002 (ip), vehicle: saline, evaluated on day 20, higher T/C = larger tumour) of the same compound?
**A.** 68 % of control [survivor count not shown]

**Q.** What about the T/C (T/C endpoint: median tumor weight (est.), dose: 8.0 mg/kg/injection, schedule: Q07DX002 (ip), vehicle: saline, evaluated on day 20, higher T/C = larger tumour) of the same compound?
**A.** 27 % of control [survivor count not shown]

**Q.** And the T/C (T/C endpoint: median tumor weight (est.), dose: 8.0 mg/kg/injection, schedule: Q07DX003 (ip), vehicle: saline with Tween-80, evaluated on day 20, higher T/C = larger tumour)?
**A.** 7 % of control [survivor count not shown]

**Q.** What about the T/C (T/C endpoint: median tumor weight (est.), dose: 8.0 mg/kg/injection, schedule: Q07DX003 (ip), vehicle: saline, evaluated on day 20, higher T/C = larger tumour) of the same compound?
**A.** 3 [survivor count not shown], 19 [survivor count not shown], 61 % of control [survivor count not shown]

**Q.** And the T/C (T/C endpoint: median tumor weight (est.), dose: 10.0 mg/kg/injection, schedule: Q07DX002 (ip), vehicle: saline, evaluated on day 20, higher T/C = larger tumour)?
**A.** 52 % of control [survivor count not shown]

**Q.** And the T/C (T/C endpoint: median tumor weight (est.), dose: 20.0 mg/kg/injection, schedule: Q07DX002 (ip), vehicle: saline, evaluated on day 20, higher T/C = larger tumour)?
**A.** 17 % of control [survivor count not shown]

**Q.** How did the T/C [1] turn out when `CC(=O)OCC12CCC(C)=CC1OC1C(O)C(O)C2(C)C12CO2` (stereo not drawn) was run?
**A.** 56 % of control [survivor count not shown]

**Q.** And the T/C [2]?
**A.** 55 % of control [survivor count not shown]

**Q.** For `CC1=C[C@H]2O[C@@H]3[C@H](O)[C@@H](OC(=O)CCl)[C@](C)([C@@]2(CO)CC1)[C@]31CO1`, which T/C (T/C endpoint: median tumor weight (est.), dose: 5.0 mg/kg/injection, schedule: Q07DX003 (ip), vehicle: saline with Tween-80, evaluated on day 20, higher T/C = larger tumour) is on record?
**A.** 171 % of control [survivor count not shown]

**Q.** What about the T/C (T/C endpoint: median tumor weight (est.), dose: 10.0 mg/kg/injection, schedule: Q07DX003 (ip), vehicle: saline with Tween-80, evaluated on day 20, higher T/C = larger tumour) of the same compound?
**A.** 75 % of control [survivor count not shown]

**Q.** What about the T/C (T/C endpoint: median tumor weight (est.), dose: 20.0 mg/kg/injection, schedule: Q07DX003 (ip), vehicle: saline with Tween-80, evaluated on day 20, higher T/C = larger tumour) of the same compound?
**A.** 54 % of control [survivor count not shown]
